Measurements taken from publication PMC4161973.
No constants are given. Whether binding was seen depends on the method and setting. In cells and extracts the contact can be indirect. Where a sequence is shown, tags or fusion partners need not be part of it.

Target: T1, GST-tagged Nmd5 (S. cerevisiae) (UniProt P46970)
T1 sequence: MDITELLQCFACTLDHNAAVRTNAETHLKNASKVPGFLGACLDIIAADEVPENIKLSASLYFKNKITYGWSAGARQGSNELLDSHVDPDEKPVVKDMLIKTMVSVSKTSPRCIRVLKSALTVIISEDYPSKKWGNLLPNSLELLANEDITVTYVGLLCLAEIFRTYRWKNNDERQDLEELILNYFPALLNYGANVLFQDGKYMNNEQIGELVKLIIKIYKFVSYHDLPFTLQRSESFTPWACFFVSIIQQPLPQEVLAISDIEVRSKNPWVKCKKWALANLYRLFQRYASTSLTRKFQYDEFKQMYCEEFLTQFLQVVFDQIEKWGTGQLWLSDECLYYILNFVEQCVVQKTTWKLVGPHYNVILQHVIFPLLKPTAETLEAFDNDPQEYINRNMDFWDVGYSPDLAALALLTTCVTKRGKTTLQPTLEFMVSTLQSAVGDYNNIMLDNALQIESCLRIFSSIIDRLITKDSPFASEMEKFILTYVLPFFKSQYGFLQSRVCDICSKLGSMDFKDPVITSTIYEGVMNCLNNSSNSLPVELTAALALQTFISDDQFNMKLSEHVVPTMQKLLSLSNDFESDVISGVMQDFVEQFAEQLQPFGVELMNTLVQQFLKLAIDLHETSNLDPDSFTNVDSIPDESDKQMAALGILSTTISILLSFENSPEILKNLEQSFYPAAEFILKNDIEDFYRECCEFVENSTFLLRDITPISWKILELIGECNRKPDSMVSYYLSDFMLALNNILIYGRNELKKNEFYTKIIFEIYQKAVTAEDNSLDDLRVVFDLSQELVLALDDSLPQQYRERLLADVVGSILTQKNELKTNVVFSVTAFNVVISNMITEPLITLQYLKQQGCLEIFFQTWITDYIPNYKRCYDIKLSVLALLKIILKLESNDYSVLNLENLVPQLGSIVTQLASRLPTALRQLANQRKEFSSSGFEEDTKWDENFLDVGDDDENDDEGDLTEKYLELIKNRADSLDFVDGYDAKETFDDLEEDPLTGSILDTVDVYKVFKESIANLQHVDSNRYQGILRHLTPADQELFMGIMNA
Experiment: pull-down; GST-importins immobilised on Glutathione Sepharose, incubated with purified 3.4 µM Tsr2 or 4 µM Tsr2:eS26 in PBSKMT with competing E. coli lysates for 1 hr at 4°C; Coomassie Blue staining or Western; both purified

**Q.** Which binding does the source give for Tsr2:eS26 complex (S. cerevisiae) here?
**A.** no binding (tested: 4 µM Tsr2:eS26)
